Values joined by “and” are separate entries in the source; they are usually repeats but may differ in a detail not shown here. Equal values may be shown once. Where a name gives a salt, the structure may show the parent alone. Read-outs that look alike come from different tables or passages of the source.
Experiments:
[1] = Cycling tests of redox flow battery cells in constant power cycling mode; conditions: for Average CE over 5 days / Capacity retention after 5 days / Capacity retention per cycle over 5 days / Capacity retention per day over 5 days / Energy Density after 5 days at 40 mW/cm^2: 5 days of constant cycling; for Energy Density after 5 days at 40 mW/cm^2: negolyte 120 mL (ARS, AQ-2,7-DS), 40 mL (Complexone), 370 mL (M3CH)
[2] = Cycling tests of redox flow battery cells in galvanostatic mode; conditions: for available capacity (capacity utilization): first 100 cycles
[3] = CN107171012, compound in the negolyte, galvanostatic mode, cited from earlier work
[4] = 0.3 M AQ-2,7-DS, pH 13.0, Battery no 3, 60 mL, flowrate 0.5 mL/min/cm^2
[5] = 0.3 M AQ-2,7-DS, pH 13.0, Battery no 3, 60 mL, flowrate 5 mL/min/cm^2
[6] = 0.3 M AQ-2,7-DS, pH 13.0, Battery no 4, 120 mL, flowrate 0.5 mL/min/cm^2
[7] = 0.3 M AQ-2,7-DS, pH 13.0, Battery no 4, 120 mL, flowrate 5 mL/min/cm^2
[8] = flowrate 0.5 mL/min/cm^2, negolyte 120/120/40/370 mL
[9] = 5 cm^2, 0.2 M compound, 1 M KOH, pH 13.5, 0.2 A
[10] = Test 1: 0.5 M M3CH, pH 13.0, 1 A
[11] = 0.2 M ARS, pH 14.0, Battery no 1, 60 mL, flowrate 0.5 mL/min/cm^2
[12] = 0.2 M ARS, pH 14.0, Battery no 1, 60 mL, flowrate 5 mL/min/cm^2
[13] = 0.2 M ARS, pH 14.0, Battery no 2, 120 mL, flowrate 0.5 mL/min/cm^2
[14] = 0.2 M ARS, pH 14.0, Battery no 2, 120 mL, flowrate 5 mL/min/cm^2
[15] = 5 cm^2, 0.2 M D4SH, 1 M KOH, pH 13.5, 0.1 A
[16] = 0.3 M Complexone, pH 13.7, Battery no 5, 40 mL, flowrate 0.5 mL/min/cm^2
[17] = 0.3 M Complexone, pH 13.7, Battery no 5, 40 mL, flowrate 5 mL/min/cm^2

## O=C1c2ccc(S(=O)(=O)O)cc2C(=O)c2cc(S(=O)(=O)O)ccc21 [AQ-2,7-DS, Anthraquinone-2,7-disulfonic acid disodium salt]
[1]; [4]
  Average CE over 30 c: 99.46%
  Capacity retention after 30 c: 98.82%
  Capacity retention per cycle over 30 c: 99.96%/cycle
  Capacity retention per day per day over 30 c: 99.18%/day
  Energy Density after 30 c at 40 mW/cm^2: 2.9 Wh/L
  Storage duration of the 1st cycle at 40 mW/cm^2: 0.40 h
[1]; [5]
  Average CE over 30 c: 99.31%
  Capacity retention after 30 c: 98.24%
  Capacity retention per cycle over 30 c: 99.94%/cycle
  Capacity retention per day per day over 30 c: 98.95%/day
  Energy Density after 30 c at 40 mW/cm^2: 4.0 Wh/L
  Storage duration of the 1st cycle at 40 mW/cm^2: 0.57 h
[1]; [6]
  Average CE over 30 c: 0.00%
  Capacity retention after 30 c: 0.00%
  Capacity retention per cycle over 30 c: 0.00%/cycle
  Capacity retention per day per day over 30 c: 0.00%/day
  Energy Density after 30 c at 40 mW/cm^2: 0.0 Wh/L
  Storage duration of the 1st cycle at 40 mW/cm^2: 0.00 h
[1]; [7]
  Average CE over 30 c: 99.31%
  Capacity retention after 30 c: 96.19%
  Capacity retention per cycle over 30 c: 99.87%/cycle
  Capacity retention per day per day over 30 c: 98.87%/day
  Energy Density after 30 c at 40 mW/cm^2: 4.1 Wh/L
  Storage duration of the 1st cycle at 40 mW/cm^2: 1.19 h
[1]; [8]
  Average CE over 5 days: 0%
  Capacity retention after 5 days: 0%
  Capacity retention per cycle over 5 days: 0%/cycle
  Capacity retention per day over 5 days: 0%/day
  Storage duration of the 1st cycle at 40 mW/cm^2: 0 h
[1]; flowrate 0.5 mL/min/cm^2
  Energy Density after 5 days at 40 mW/cm^2: 0.0 Wh/L

## O=C(O)CCCCOc1ccc(OCCCCC(=O)O)c2c1C(=O)c1ccccc1C2=O [Compound D4CH]
[2]; [9]
  averaged coulombic efficiency: 99.5%
  capacity retention: 99.995 % per cycle
  cycles before losing 20% of initial capacity: 4,000 cycles
  energy efficiency: 70%
  available capacity (capacity utilization): 91%

## O=C(O)CCCOc1ccc(O)c2c1C(=O)c1ccccc1C2=O [Compound M3CH]
[2]; Test 1
  averaged coulombic efficiency: 99.8%
  cycles before losing 20% of initial capacity: 36,363 cycles
  energy efficiency: 78%
[2]; [10]
  capacity retention: 100 % per cycle
  energy density: ~10 Wh/L
[2]; Test 1: 25 cm^2, 0.5 M M3CH, pH 13.0, 1 A, 85 cycles
  available capacity: 96%
[2]; Test 2
  average CE with 1 day of rest after each full charge: 99.76%
  capacity retention: > 99.9999 % per cycle
  cycles before losing 20% of initial capacity: 200,000 cycles
  energy efficiency: 79%
  hours of storage: 1.13 h
[2]; Test 2, estimated
  self-discharge: ~0.19 % per storage day
[2]; Test 2: 25 cm^2, 0.5 M M3CH, pH 13.0, 1 A, 24 h rest after charge, 7 cycles
  available capacity: 92%
[2]; Test 2 comparison, no rest
  average CE during constant cycling: 99.95%
[1]; [8]
  Average CE over 5 days: 99.18%
  Capacity retention after 5 days: 99.9898%
  Capacity retention per cycle over 5 days: 99.9992%/cycle
  Capacity retention per day over 5 days: 99.9980%/day
  Storage duration of the 1st cycle at 40 mW/cm^2: 4.05 h
[1]; flowrate 0.5 mL/min/cm^2
  Energy Density after 5 days at 40 mW/cm^2: 4.6 Wh/L
[1]; Example 6
  averaged coulombic efficiency: 99.1%
  capacity retention: 100 % per cycle
  energy efficiency: 78%
[1]; Example 6, 30 cycles over 14 days
  available capacity: 74%
[1]; Example 6, 50% SOC
  power density in charge: 90 mW·cm^2
  power density in discharge: 70 mW·cm^2
[1]; Example 6, polarization curve at 50% SOC
  active surface resistance of the cell: 20 Ω·cm^2
[1]; Example 6: 370 mL negolyte 0.3 M M3CH, pH 13.5, 1 W, 0.5 mL/min/cm^2
  storage capacity: 4 h

## O=C1c2ccccc2C(=O)c2c1cc(S(=O)(=O)O)c(O)c2O [ARS, 1,2-Dihydroxyanthraquinone-3-sulfonic acid sodium salt]
[3]
  coulombic efficiency: 98.3%
  energy density: 1.2 Wh/L
[1]; [11]
  Average CE over 30 c: 98.79%
  Capacity retention after 30 c: 92.06%
  Capacity retention per cycle over 30 c: 99.72%/cycle
  Capacity retention per day over 30 c: 93.87%/day
  Energy Density after 30 c at 40 mW/cm^2: 2.5 Wh/L
  Storage duration of the 1st cycle at 40 mW/cm^2: 0.41 h
[1]; [12]
  Average CE over 30 c: 98.79%
  Capacity retention after 30 c: 95.27%
  Capacity retention per cycle over 30 c: 99.84%/cycle
  Capacity retention per day over 30 c: 96.57%/day
  Energy Density after 30 c at 40 mW/cm^2: 3.2 Wh/L
  Storage duration of the 1st cycle at 40 mW/cm^2: 0.50 h
[1]; [13]
  Average CE over 30 c: 98.56%
  Capacity retention after 30 c: 86.22%
  Capacity retention per cycle over 30 c: 99.51%/cycle
  Capacity retention per day over 30 c: 94.34%/day
  Energy Density after 30 c at 40 mW/cm^2: 2.2 Wh/L
  Storage duration of the 1st cycle at 40 mW/cm^2: 0.77 h
[1]; [14]
  Average CE over 30 c: 98.48%
  Capacity retention after 30 c: 89.82%
  Capacity retention per cycle over 30 c: 99.64%/cycle
  Capacity retention per day over 30 c: 96.68%/day
  Energy Density after 30 c at 40 mW/cm^2: 3.5 Wh/L
  Storage duration of the 1st cycle at 40 mW/cm^2: 1.16 h
[1]; [8]
  Average CE over 5 days: 98.64%
  Capacity retention after 5 days: 72.9686%
  Capacity retention per cycle over 5 days: 99.5010%/cycle
  Capacity retention per day over 5 days: 93.8917%/day
  Storage duration of the 1st cycle at 40 mW/cm^2: 0.77 h
[1]; flowrate 0.5 mL/min/cm^2
  Energy Density after 5 days at 40 mW/cm^2: 1.9 Wh/L

## O=C1c2ccccc2C(=O)c2c(OCCCCS(=O)(=O)O)ccc(OCCCCS(=O)(=O)O)c21 [Compound D4SH]
[2]; 0.2 M D4SH, 0.1 A
  charged capacity, second cycle: 4.4 mAh
[2]; [15]
  available capacity reached in first charge: 34%
  discharged capacity, first cycle: 3.6 mAh
[2]; first cycle, 0.2 M D4SH, 0.1 A
  discharged capacity as % of the charged capacity: 10%

## O=C(O)CN(CC(=O)O)Cc1cc2c(c(O)c1O)C(=O)c1ccccc1C2=O [Complexone, 3,4-Dihydroxyanthraquinon-2-yl-methylimino-diacetic acid]
[3]
  energy density: 5.2 Wh/L
[3]; listed as alizarin complexone
  coulombic efficiency: 97.1% and 97.8%
[1]; [16]
  Average CE over 30 c: 98.88%
  Capacity retention after 30 c: 89.89%
  Capacity retention per cycle over 30 c: 99.65%/cycle
  Capacity retention per day over 30 c: 93.28%/day
  Energy Density after 30 c at 40 mW/cm^2: 4.5 Wh/L
  Storage duration of the 1st cycle at 40 mW/cm^2: 0.53 h
[1]; [17]
  Average CE over 30 c: 98.7%
  Capacity retention after 30 c: 90.79%
  Capacity retention per cycle over 30 c: 99.68%/cycle
  Capacity retention per day over 30 c: 93.72%/day
  Energy Density after 30 c at 40 mW/cm^2: 4.8 Wh/L
  Storage duration of the 1st cycle at 40 mW/cm^2: 0.54 h
[1]; [8]
  Average CE over 5 days: 98.98%
  Capacity retention after 5 days: 71.4600%
  Capacity retention per cycle over 5 days: 99.6977%/cycle
  Capacity retention per day over 5 days: 93.5002%/day
  Storage duration of the 1st cycle at 40 mW/cm^2: 0.53 h
[1]; flowrate 0.5 mL/min/cm^2
  Energy Density after 5 days at 40 mW/cm^2: 3.5 Wh/L

## O=C1c2ccccc2C(=O)c2c(OCCCCS(=O)(=O)O)ccc(O)c21 [Compound M4SH]
[2]; [9]
  averaged coulombic efficiency: 99.9%
  capacity retention: 99.999 % per cycle
  cycles before losing 20% of initial capacity: 20,000 cycles
  energy efficiency: 76%
  available capacity (capacity utilization): 98%

— US12438175B2, “Aqueous organic-based electrolyte for redox flow battery” (KEMIWATT, priority 2019, dated 2025)
